# Record: PubChem BioAssay AID1671195 (Yale University, 2021)
# Assay: 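Genes whose knockdown alters LDL uptake in liver cancer cells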 (primary screen)
# Cells: human Huh7 hepatoma cells
# Reagents: siRNA pool against human genes, 18 nM
# Time to read-out: about 2 to 2.5 days of knockdown, then 8 h LDL uptake
# Conditions: DiI-labelled LDL at 30 µg/ml for 8 h, in lipoprotein-deficient serum medium
# Measured: 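Per-cell DiI-LDL intensity by automated imaging; well means scaled to the plate median and given as a robust z-score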
# Direction: robust z-score: higher = more LDL uptake after knockdown
# Hit rule: 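Active when two or more replicates show a robust z-score above 2 or below -2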
# Here is one part, drawn at random, of about 22,000 reagents. About 1,510 of them (6.9%) count as active. 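Active includes knockdowns raising or lowering LDL uptake; positive z-scores mean more uptake, negative mean less.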 The numbers tell different reagents against one gene apart.
gene knocked down,pool no.,"robust z-score, replicate 1","robust z-score, replicate 2","robust z-score, replicate 3",Call
GKN2,1,-0.943,-1.68,-1.17,inactive
OR6C3,1,-1.11,-0.761,-0.842,inactive
USF3,1,0.247,0.241,0.237,inactive
FAM169A-AS1,1,-0.0935,-0.157,0.0774,inactive
LSM7,1,-1.14,-0.951,-0.757,inactive
OR2M2,1,1.39,1.76,2.24,inactive
PARP9,1,0.033,0.496,-0.226,inactive
VAMP1,1,-0.153,-0.15,-0.133,inactive
TCF7L2,1,-0.264,-0.851,-0.466,inactive
CCNYL2,1,-0.488,-0.644,0.707,inactive
IL6,1,-0.316,-0.263,0.231,inactive
PDIA6,1,-0.858,-0.595,-1.16,inactive
TTLL2,1,-0.522,-0.79,-0.451,inactive
FOSB,1,1.62,1.1,0.87,inactive
B3GALT6,1,-0.577,0.093,-0.606,inactive
WDFY3,1,-1.2,-1.01,-0.936,inactive
KRT8P45,1,-1.26,-2.41,-1.1,inactive
THNSL1,1,-0.967,-0.719,-0.82,inactive
SMCO1,1,-0.517,-0.536,-0.294,inactive
LOC441921 (retired record),1,-0.389,-0.164,-0.464,inactive

4 entries already listed, arranged by “robust z-score, replicate 3”, ascending.
gene knocked down,pool no.,"robust z-score, replicate 1","robust z-score, replicate 2","robust z-score, replicate 3",Call
PDIA6,1,-0.858,-0.595,-1.16,inactive
TTLL2,1,-0.522,-0.79,-0.451,inactive
IL6,1,-0.316,-0.263,0.231,inactive
FOSB,1,1.62,1.1,0.87,inactive

The results go on.
gene knocked down,pool no.,"robust z-score, replicate 1","robust z-score, replicate 2","robust z-score, replicate 3",Call
LOC401038 (retired record),1,-1.31,-1.57,-1.58,inactive
PAK1,1,0.184,0.904,-0.313,inactive
SAFB,1,0.751,0.833,-0.351,inactive
MAGEB2,1,-0.73,-0.672,-0.336,inactive
HBZ,1,2.01,0.169,-2.57,inactive
LOC389702 (retired record),1,-0.542,-0.437,0.0446,inactive
CENPBD1P,1,0.785,2.14,2,inactive
TTYH1,1,-0.902,-0.551,-0.399,inactive
MAST4,1,0.218,-0.237,-0.126,inactive
MAST4,2,-0.0779,-0.227,-0.0493,inactive
LZIC,1,-0.48,-0.844,-1.1,inactive
RASA1,1,-0.719,-0.573,-0.831,inactive
PLAUR,1,1.7,1.46,1.85,inactive
TMEM248,1,-0.17,-0.297,1.16,inactive
LOC399951 (retired record),1,-0.0965,-0.757,-0.871,inactive
DZIP1L,1,0.184,-0.0855,0.178,inactive
DBI,1,-0.813,-0.704,-2.34,inactive
C9orf50,1,0.345,0.102,0.0756,inactive
NANP,1,-0.967,-0.178,-0.837,inactive
VPS45,1,1.55,0.123,1.8,inactive
SLC29A1,1,0.456,-0.139,0.861,inactive
GLIPR1L2,1,0.489,1.72,2.29,inactive
MRPS24,1,-1.48,-1.86,-1.72,inactive
RMI2,1,-1.22,-0.783,-1.26,inactive
LOC285889,1,-0.659,-0.296,-0.335,inactive
LOC389268 (retired record),1,1.84,2.04,3.31,active
TSC22D2,1,1.23,1.29,1.22,inactive
POFUT2,1,-0.707,0.987,-0.00846,inactive
SPICE1,1,0.679,0.122,0.734,inactive
LOC440510 (retired record),1,-0.499,-0.938,-0.451,inactive
IHO1,1,0.572,0.621,0.821,inactive
SNX16,1,0.171,0.00701,0.053,inactive
HPDL,1,-0.383,-0.588,-1.04,inactive
ANKRD20A19P,1,-0.374,-0.889,-0.718,inactive
LINC01501,1,-0.44,-0.68,-0.554,inactive
OAS1,1,-0.294,-1.81,-1.26,inactive
FBXO7,1,1.41,-0.789,1.71,inactive
KRTAP13-1,1,0.105,-0.538,-0.321,inactive
LOC388305 (retired record),1,-0.209,-0.509,-0.751,inactive
NAPB,1,1.55,1.98,0.85,inactive
